Results: publication PMC3617236

Molecular target: T1, rabbit fructose-bisphosphate aldolase (rabbit (O. cuniculus)) (UniProt P00883)
T1 sequence: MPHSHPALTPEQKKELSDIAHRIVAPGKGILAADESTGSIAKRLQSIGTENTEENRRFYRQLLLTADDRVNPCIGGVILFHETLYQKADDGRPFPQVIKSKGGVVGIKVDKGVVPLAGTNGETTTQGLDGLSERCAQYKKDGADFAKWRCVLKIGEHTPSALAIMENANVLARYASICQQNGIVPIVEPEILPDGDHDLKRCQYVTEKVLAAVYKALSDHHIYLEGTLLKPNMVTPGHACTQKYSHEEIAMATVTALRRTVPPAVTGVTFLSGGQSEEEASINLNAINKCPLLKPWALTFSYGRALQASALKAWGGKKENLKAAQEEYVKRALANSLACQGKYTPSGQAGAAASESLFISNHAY
Assay: far-Western, overlay or dot blot; rabbit glycolytic enzymes (3 µg per lane) run on SDS-PAGE and blotted on nitrocellulose; His-wBm0432 in solution (3 µg/ml by the methods, 2 µg/ml by the legend), 3 h, room temperature, overlay buffer 50 mM HEPES pH 7.3, 3 mM EGTA, 3 mM CaCl2, 3 mM MgCl2, 80 mM KCl, 0.1 mM DTT, 5% skim milk; detected with HRP anti-His antibody; both purified

## recombinant His-tagged Wolbachia surface protein wBm0432
  binding: binds

No constants are given. Whether binding was seen depends on the method and setting. Binding can be weak; no strength is given.
